Data as given in PubChem BioAssay AID1259405 (NCATS, 2018).
Purpose: 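Knock-downs that lift recombinant protein yield in hamster ovary cells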 (primary screen). System: Chinese hamster CHO-K1 ovary cells with stable secreted eGFP expression. Reagents: single siRNA against mouse genes, 0.8 pmol siRNA per well (2 µl of 400 nM stock). Duration: 3 days. Read-out: 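Per-well intracellular GFP measured by laser scanning cytometry, plus viability from ATP luminescence, each relative to plate median of non-targeting control wells, in %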. Scale: GFP, % of control: higher = more GFP per well, higher productivity; viability (ATP), % of control: higher = more viable cells (more ATP). Active means: 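a knock-down is called active if GFP reaches 120% or more of non-targeting control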.
Shown is an unselected part of about 50,000 deposited reagents. In the full data, about 4,000 (8%) are marked active. 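Mouse siRNA library applied to hamster cells; one well for each siRNA.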 The numbers tell different reagents against one gene apart. No sequences are given here.

no.	gene	reagent no.	GFP, % of control	viability (ATP), % of control	activity call
1	S100a4	1	88.8	93.4	inactive
2	S100a4	2	76.6	81.5	inactive
3	Tmem106b	1	85.7	83	inactive
4	Tmem106b	2	104	116	inactive
5	Tmem106b	3	37.1	63.1	inactive
6	Or51s1	1	33.1	42	inactive
7	Or51s1	2	83.9	101	inactive
8	Or51s1	3	62.2	61.6	inactive
9	Cers4	1	42.8	59.8	inactive
10	Cers4	2	76.1	25.3	inactive
11	Cers4	3	123	85.8	active
12	Gpr151	1	86.5	37.3	inactive
13	Gpr151	2	93	59.8	inactive
14	Gpr151	3	81.9	85.4	inactive
15	Klhdc2	1	84.8	75.6	inactive
16	Klhdc2	2	68	75.3	inactive
17	Klhdc2	3	54.6	41.7	inactive
18	Rbm3	1	65.8	70	inactive
19	Rbm3	2	68.3	92.3	inactive
20	Rbm3	3	52	58.5	inactive
21	Nlk	1	82.6	87.5	inactive
22	Golga5	1	67.4	74.5	inactive
23	Golga5	2	67.7	44.2	inactive
24	Golga5	3	118	70.5	inactive
25	Ern2	1	79.3	58.6	inactive
26	Ern2	2	38.4	35.4	inactive
27	Ern2	3	87.1	81.7	inactive
28	Ca11	1	49.2	80	inactive
29	Ca11	2	129	95.7	active
30	Or5m11b	1	51.1	61.2	inactive
31	Or5m11b	2	78.1	93	inactive
32	Or5m11b	3	46.6	57.5	inactive
33	Rnase12	1	86.9	55.1	inactive
34	Rnase12	2	74.8	59.8	inactive
35	Rnase12	3	25.5	37.9	inactive
